# Library screen at single concentrations

By UniProt entry, the sequences of proteins in these tests, tags left out. Residues count along the entry.
UniProt Q8IDJ8, 1-583: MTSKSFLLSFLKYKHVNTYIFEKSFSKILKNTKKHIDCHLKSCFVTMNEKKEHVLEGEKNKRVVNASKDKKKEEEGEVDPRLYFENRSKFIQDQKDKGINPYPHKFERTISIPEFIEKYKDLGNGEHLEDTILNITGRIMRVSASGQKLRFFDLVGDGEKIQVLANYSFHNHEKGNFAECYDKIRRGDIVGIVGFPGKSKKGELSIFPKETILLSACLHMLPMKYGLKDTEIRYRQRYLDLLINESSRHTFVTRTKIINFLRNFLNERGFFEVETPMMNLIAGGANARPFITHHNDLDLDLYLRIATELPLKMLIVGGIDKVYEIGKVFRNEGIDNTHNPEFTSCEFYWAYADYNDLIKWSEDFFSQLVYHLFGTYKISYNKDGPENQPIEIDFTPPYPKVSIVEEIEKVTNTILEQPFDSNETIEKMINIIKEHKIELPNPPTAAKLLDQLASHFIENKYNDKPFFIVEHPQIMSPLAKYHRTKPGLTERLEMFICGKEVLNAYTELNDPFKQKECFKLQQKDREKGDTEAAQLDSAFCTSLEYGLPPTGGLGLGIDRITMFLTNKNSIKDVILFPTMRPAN
UniProt A4I591, 1-473: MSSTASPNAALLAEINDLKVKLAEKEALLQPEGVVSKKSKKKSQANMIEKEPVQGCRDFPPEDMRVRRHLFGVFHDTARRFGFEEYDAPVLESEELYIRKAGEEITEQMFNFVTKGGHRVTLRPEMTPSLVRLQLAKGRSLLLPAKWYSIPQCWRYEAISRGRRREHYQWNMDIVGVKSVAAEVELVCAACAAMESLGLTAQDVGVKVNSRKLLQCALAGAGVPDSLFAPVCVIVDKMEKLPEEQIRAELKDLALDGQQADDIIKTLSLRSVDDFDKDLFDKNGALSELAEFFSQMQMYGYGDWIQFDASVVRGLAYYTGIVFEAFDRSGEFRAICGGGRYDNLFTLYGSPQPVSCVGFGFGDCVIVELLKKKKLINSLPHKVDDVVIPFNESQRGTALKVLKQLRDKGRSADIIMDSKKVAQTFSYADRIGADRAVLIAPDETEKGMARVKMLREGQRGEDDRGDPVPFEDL
UniProt Q4DA54, 1-478: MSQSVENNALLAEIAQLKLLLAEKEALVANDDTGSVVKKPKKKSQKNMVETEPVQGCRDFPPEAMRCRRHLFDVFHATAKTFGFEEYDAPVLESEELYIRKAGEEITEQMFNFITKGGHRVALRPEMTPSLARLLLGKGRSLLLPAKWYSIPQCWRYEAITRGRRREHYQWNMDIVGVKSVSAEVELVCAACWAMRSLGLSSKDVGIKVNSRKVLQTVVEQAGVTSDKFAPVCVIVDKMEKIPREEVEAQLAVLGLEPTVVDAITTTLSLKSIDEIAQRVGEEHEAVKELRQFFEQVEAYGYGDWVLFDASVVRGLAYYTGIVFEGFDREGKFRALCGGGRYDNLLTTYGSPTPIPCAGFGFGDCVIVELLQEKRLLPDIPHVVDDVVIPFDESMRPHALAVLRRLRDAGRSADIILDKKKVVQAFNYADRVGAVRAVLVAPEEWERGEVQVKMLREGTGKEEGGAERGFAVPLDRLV
UniProt P9WPC5, whole entry: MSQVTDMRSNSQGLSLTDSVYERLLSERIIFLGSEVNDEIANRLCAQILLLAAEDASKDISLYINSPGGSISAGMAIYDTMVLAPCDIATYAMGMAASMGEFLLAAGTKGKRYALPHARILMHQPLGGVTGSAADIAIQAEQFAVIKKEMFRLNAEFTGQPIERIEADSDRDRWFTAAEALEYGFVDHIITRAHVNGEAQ
UniProt P9WPC3, whole entry partner: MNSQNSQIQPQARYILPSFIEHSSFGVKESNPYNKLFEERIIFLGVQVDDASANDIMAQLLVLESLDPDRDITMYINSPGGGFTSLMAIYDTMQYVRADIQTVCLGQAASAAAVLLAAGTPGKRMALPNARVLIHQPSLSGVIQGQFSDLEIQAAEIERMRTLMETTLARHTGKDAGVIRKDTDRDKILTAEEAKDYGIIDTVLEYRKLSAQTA

Data taken from ChEMBL document CHEMBL3988442, “University of Dundee, Small-Polar-MMV Screening Library” (2021).

PfKRS1: 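Lysine-tRNA ligase, Plasmodium falciparum 3D7 (UniProt Q8IDJ8). Enzyme assay of the cytosolic lysyl-tRNA synthetase in 384-well plates, read by luminescence. Concentration: 30 µM. Direction is inferred from only a few compounds that gave an IC50; most scored high, so higher reads as stronger inhibition. Of about 69,000 compounds tested this way, about 49 (0.071%) reached 50% or more in at least one test.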
LiHisRS: 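Histidine-tRNA ligase, Leishmania infantum (UniProt A4I591). Enzyme assay of histidyl-tRNA synthetase; the read-out is not stated. Compounds at 30 µM. Higher reads as stronger inhibition (inferred: compounds with an IC50 in retests scored well above the rest). The assay is labelled LdHisRS but filed under L. infantum. Of about 69,000 compounds tested this way, about 410 (0.6%) reached 50% or more in at least one test.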
TcHisRS: 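Histidine-tRNA ligase, Trypanosoma cruzi CL Brener (UniProt Q4DA54). Enzyme assay of histidyl-tRNA synthetase; the read-out is not stated. Compounds at 30 µM. Higher reads as stronger inhibition (inferred: compounds with an IC50 in retests scored well above the rest). Of about 69,000 compounds tested this way, about 31 (0.045%) reached 50% or more in at least one test.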
Leishmania in macrophages: 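Cell assay of Leishmania donovani living inside macrophages; the read-out is not stated. Concentration: 30 µM. Higher reads as stronger inhibition (inferred: compounds with an IC50 in retests scored well above the rest). Size under these conditions: about 69,000 compounds, about 1,000 of them at 50% or above in at least one test.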
ClpP1P2: 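ClpP1P2, Mycobacterium tuberculosis (UniProt P9WPC5 and UniProt P9WPC3). Protease assay of ClpP1P2, read by the AMC dye that it sets free. Compounds at 50 µM. Higher reads as stronger inhibition, judged from the few compounds that gave an IC50. Most other retested compounds had strongly negative values. About 69,000 compounds were tested under these conditions; 0.015% (about 10) showed 50% or more at least once.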

Results are given as percent effect.
The controls that fix the scale are not given in the record; negative values are as filed.
The compounds are a random part of those screened.

{"smiles": "CN1CCN(C(CNC(=O)CCn2cccn2)c2cccs2)CC1", "stereo": "stereo not drawn", "PfKRS1": 3.671, "LiHisRS": 0.9709, "TcHisRS": 4.564, "Leishmania in macrophages": 17.99, "ClpP1P2": -19.75}
{"smiles": "COc1ccc(C(O)CNC(=O)NCc2c(C)cc(C)[nH]c2=O)cc1", "stereo": "stereo not drawn", "PfKRS1": -0.635, "LiHisRS": 4.386, "TcHisRS": 1.156, "Leishmania in macrophages": 13.03, "ClpP1P2": -2.212}
{"smiles": "COCCC(=O)N1Cc2cnc(Cc3ccc(OC)cc3)nc2C1", "PfKRS1": -3.266, "LiHisRS": 8.602, "TcHisRS": -2.618, "Leishmania in macrophages": 21.46, "ClpP1P2": -3.821}
{"smiles": "CN(Cc1cnccn1)CC1CCOc2ccccc2C1", "stereo": "stereo not drawn", "PfKRS1": 9.812, "LiHisRS": 12.7, "TcHisRS": -2.564, "Leishmania in macrophages": 44.13, "ClpP1P2": 4.78}
{"smiles": "Cc1cccnc1N1CC2(CCN(Cc3cccnc3)C2)C1.O=C(O)C(F)(F)F.O=C(O)C(F)(F)F.O=C(O)C(F)(F)F", "Leishmania in macrophages": 2.902}
{"smiles": "Cn1cc(C(=O)NC2CCN(C(=O)NCC3CCSCC3)CC2)cn1", "PfKRS1": -2.807, "LiHisRS": 10.81, "TcHisRS": 3.383, "Leishmania in macrophages": 2.098, "ClpP1P2": -0.9074}
{"smiles": "COCc1cncc2c1CCN(C(=O)c1cccc(C#N)c1)C2", "PfKRS1": 7.601, "LiHisRS": -15.32, "TcHisRS": 1.105, "ClpP1P2": 1.356}
{"smiles": "CC(C)NC(=O)c1noc2c1CN(Cc1cnn(C)c1)CC2", "PfKRS1": 2.682, "LiHisRS": 11.54, "TcHisRS": 8.38, "Leishmania in macrophages": 0.4989, "ClpP1P2": -10.51}
{"smiles": "COCCCn1ccnc1-c1cnc(OC)nc1", "PfKRS1": -0.4857, "LiHisRS": 21.15, "TcHisRS": 5.833, "Leishmania in macrophages": 27.45, "ClpP1P2": -3.703}
{"smiles": "Cc1nc(CN2CCC3(CCCN(Cc4cnn(C)c4)C3)C2=O)cs1", "stereo": "stereo not drawn", "PfKRS1": 4.888, "LiHisRS": 16.98, "TcHisRS": 4.865, "ClpP1P2": -5.558}
{"smiles": "CCCN1CCCN(C(=O)c2oc(C)nc2C)CC1", "PfKRS1": -2.005, "LiHisRS": 11.39, "TcHisRS": 3.879, "Leishmania in macrophages": 1.793, "ClpP1P2": 4.162}
{"smiles": "COC(=O)N1CCCC(C(=O)N(C)C)C1", "stereo": "stereo not drawn", "PfKRS1": 3.65, "LiHisRS": 5.882, "TcHisRS": 4.762, "Leishmania in macrophages": 18.25, "ClpP1P2": 0.0413}
{"smiles": "Cc1cnn(CC2CN(Cc3cccnc3)CCO2)c1", "stereo": "stereo not drawn", "PfKRS1": -0.1549, "LiHisRS": 0, "TcHisRS": 4.023, "Leishmania in macrophages": -5.471, "ClpP1P2": -9.565}
{"smiles": "CC(=O)N1CC(C(=O)NC(C)c2cnn(C)c2C)C1", "stereo": "stereo not drawn", "PfKRS1": 3.08, "LiHisRS": 8.392, "TcHisRS": 0, "Leishmania in macrophages": -16.42, "ClpP1P2": -21.8}
{"smiles": "COC(=O)c1cccc(S(=O)(=O)NC(=O)c2ccccc2F)c1", "PfKRS1": 1.775, "LiHisRS": 15.18, "TcHisRS": 9.091, "Leishmania in macrophages": 34, "ClpP1P2": 2.489}
{"smiles": "COCC(=O)N1CCc2[nH]c(=O)ccc2C1", "PfKRS1": 7.238, "LiHisRS": 5.983, "TcHisRS": 4.444, "Leishmania in macrophages": 33.73, "ClpP1P2": -5.693}
{"smiles": "CC(Cn1cccn1)NC(=O)N1CCN(Cc2cccs2)CC1", "stereo": "stereo not drawn", "PfKRS1": -3.122, "LiHisRS": 25.68, "TcHisRS": -2.642, "Leishmania in macrophages": -23.65, "ClpP1P2": 0.6472}
{"smiles": "O=C(CN1CCOC(CNc2cccnn2)C1)NCc1cccs1", "stereo": "stereo not drawn", "PfKRS1": 0.01962, "LiHisRS": 42.2, "TcHisRS": 23.62, "Leishmania in macrophages": 19.17, "ClpP1P2": -19.62}
{"smiles": "CCOc1ccc(C(=O)N2Cc3cnc(CC(C)C)nc3C2)o1", "PfKRS1": 1.49, "LiHisRS": 8.333, "TcHisRS": 0, "Leishmania in macrophages": -5.172, "ClpP1P2": 4.427}

For reference, 2 entries once more:

* COCCCn1ccnc1-c1cnc(OC)nc1 | PfKRS1: -0.4857%; LiHisRS: 21.15%; TcHisRS: 5.833%; Leishmania in macrophages: 27.45%; ClpP1P2: -3.703%
* CN(Cc1cnccn1)CC1CCOc2ccccc2C1 (stereo not drawn) | PfKRS1: 9.812%; LiHisRS: 12.7%; TcHisRS: -2.564%; Leishmania in macrophages: 44.13%; ClpP1P2: 4.78%